In all, about 33,000 sequences were measured (“E-score (-0.5 to 0.5)”: median about -0.0014, highest 2% from about 0.25 on). The list shows a part of the results.
These sequences were tested against T1, Cad1 (UniProt P24813) (assay: PBM E-score (8-mer binding enrichment) (E-score (-0.5 to 0.5)); higher = stronger / more preferred TF binding). Conditions: protein concentration: 100 nM; construct: GST-full length.
T1 sequence: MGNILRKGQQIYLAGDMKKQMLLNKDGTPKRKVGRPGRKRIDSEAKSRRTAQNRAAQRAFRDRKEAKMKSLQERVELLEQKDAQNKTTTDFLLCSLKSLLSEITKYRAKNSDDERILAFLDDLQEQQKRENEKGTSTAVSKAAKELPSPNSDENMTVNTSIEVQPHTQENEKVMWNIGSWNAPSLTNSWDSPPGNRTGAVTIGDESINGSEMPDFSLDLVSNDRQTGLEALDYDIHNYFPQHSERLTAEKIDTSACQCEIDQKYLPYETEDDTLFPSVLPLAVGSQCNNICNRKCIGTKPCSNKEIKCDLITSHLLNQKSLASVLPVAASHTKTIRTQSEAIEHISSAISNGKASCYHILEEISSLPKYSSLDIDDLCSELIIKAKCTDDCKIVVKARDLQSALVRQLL
How it was run: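 Universal all-10-mer Agilent arrays, fresh or stripped once, were converted to double-stranded form by primer extension. GST-tagged yeast transcription factors from PURExpress in vitro transcription/translation, full-length or DNA-binding domain only, were applied at about 100-200 nM and detected with fluorescent anti-GST. After masliner normalisation, the Universal PBM Analysis Suite scored each ungapped eight-base word together with its reverse complement by E-score.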
With CTAGGCTA the “PBM E-score” value was -0.119. In the case of AAATATTC, the “PBM E-score” value is reported as 0.249. With GGGTAACC the “PBM E-score” value was -0.147. For CGAGTAAA, the “PBM E-score” value was 0.126. With AAATAGAA the “PBM E-score” value was -0.0638. GTCTGGGA was tested, and the “PBM E-score” value was -0.0272. For CCCTTGGC, the “PBM E-score” value was -0.249. AAAAGCTG was tested, and the “PBM E-score” value was -0.116. With ACAAACAT the “PBM E-score” value was 0.145. CGAACGGA was tested, and the “PBM E-score” value was 0.0674. For AATAATGT, the “PBM E-score” value was 0.155. In the case of CACATGAC, the “PBM E-score” value is reported as -0.0022. ATTCAGTA was tested, and the “PBM E-score” value was 0.0848. For ACACGGGT, the “PBM E-score” value was -0.018. With ATGTCTTA the “PBM E-score” value was 0.0553. For CCAGCTAA, the “PBM E-score” value was -0.0477. With CCAGAGTC the “PBM E-score” value was -0.0683. In the case of GTAACGCA, the “PBM E-score” value is reported as 0.0889. In the case of GACCGGCA, the “PBM E-score” value is reported as -0.123. In the case of GTGATGAA, the “PBM E-score” value is reported as 0.0512. ACCTACAC was tested, and the “PBM E-score” value was -0.134. For GTAATGCA, the “PBM E-score” value was -0.0933. TCCCAAGA was tested, and the “PBM E-score” value was 0.0234. In the case of GACCCGGA, the “PBM E-score” value is reported as -0.0615. For CCAAGTGC, the “PBM E-score” value was -0.229. With GGAATCAA the “PBM E-score” value was 0.127. With ACACGCCC the “PBM E-score” value was -0.0578. GACATGGC was tested, and the “PBM E-score” value was -0.116. CATACCCG was tested, and the “PBM E-score” value was -0.0972. GAGTACAA was tested, and the “PBM E-score” value was 0.0249. CCCGAGCA was tested, and the “PBM E-score” value was -0.0974. CGGACAAC was tested, and the “PBM E-score” value was 0.216. In the case of ATAGTGAA, the “PBM E-score” value is reported as 0.117. With CCGCAAAC the “PBM E-score” value was 0.156. TACCCAAA was tested, and the “PBM E-score” value was 0.00386. GGGGTGAC was tested, and the “PBM E-score” value was -0.274. CTGAGTTC was tested, and the “PBM E-score” value was 0.0925. For CTCACTCC, the “PBM E-score” value was -0.15. With CTAAGTCC the “PBM E-score” value was -0.247. In the case of GCACGCGA, the “PBM E-score” value is reported as 0.0766. ACGAGGTA was tested, and the “PBM E-score” value was 0.0795. For AAATATTA, the “PBM E-score” value was 0.298. For CCGTCGAA, the “PBM E-score” value was 0.1. With ATCAATCC the “PBM E-score” value was -0.0665. For ATAGTCCA, the “PBM E-score” value was 0.117. With AGCATCAG the “PBM E-score” value was -0.0302. In the case of CCGATTGC, the “PBM E-score” value is reported as 0.25. In the case of CATATTTC, the “PBM E-score” value is reported as 0.0121. For CGTTCCCA, the “PBM E-score” value was -0.167. In the case of CAACAATG, the “PBM E-score” value is reported as 0.14. With CCCCATAG the “PBM E-score” value was -0.102. In the case of GTGGACAC, the “PBM E-score” value is reported as 0.00261. With CCACCGAG the “PBM E-score” value was -0.072. With GCGCGAGC the “PBM E-score” value was 0.0306. In the case of CTATAGGC, the “PBM E-score” value is reported as -0.0641. For CTTGAAAG, the “PBM E-score” value was -0.0947. With AGCTCAAG the “PBM E-score” value was -0.168. ACACTATG was tested, and the “PBM E-score” value was -0.0993. In the case of ACTTGTAT, the “PBM E-score” value is reported as 0.0376. For GGGCAACC, the “PBM E-score” value was 0.0184. In the case of GTGTCTAA, the “PBM E-score” value is reported as 0.0993. With ACGACTTG the “PBM E-score” value was -0.14. With ACGCAAAG the “PBM E-score” value was -0.045. With AAAGTCCT the “PBM E-score” value was -0.105. AGACGAAG was tested, and the “PBM E-score” value was -0.164. AACGTGGA was tested, and the “PBM E-score” value was -0.0358. In the case of CGACGATA, the “PBM E-score” value is reported as 0.02. For AAATGCAA, the “PBM E-score” value was -0.00746. With CATGAAGA the “PBM E-score” value was -0.0229. For AAGGGAGT, the “PBM E-score” value was -0.298. GTCCTATA was tested, and the “PBM E-score” value was 0.0155. With AAAGGGCA the “PBM E-score” value was -0.132. In the case of ATAAGACA, the “PBM E-score” value is reported as 0.0499. In the case of TGGGAACA, the “PBM E-score” value is reported as -0.0827. With CAACTTCA the “PBM E-score” value was -0.0119. For AGTTCTGA, the “PBM E-score” value was 0.152. For CGCGTATC, the “PBM E-score” value was 0.154. In the case of ATTCCGGG, the “PBM E-score” value is reported as 0.122. For AGGTAATC, the “PBM E-score” value was 0.142. AGCCCACG was tested, and the “PBM E-score” value was 0.0442. In the case of ACAACAGC, the “PBM E-score” value is reported as 0.0732. For CTGCTTAC, the “PBM E-score” value was 0.276. In the case of GAACCCGA, the “PBM E-score” value is reported as 0.0447. In the case of CAGAACGC, the “PBM E-score” value is reported as -0.0323. With GAATGAAC the “PBM E-score” value was 0.0799. With AGGTAACA the “PBM E-score” value was 0.104.

Reference: the supplement of paper PMC3334620
